Measurements from the supplement of paper PMC10849652.
The list shows a part of the results.

Protein sequences, listed by entry. Tags and fused reporters are not part of them. Lines headed by an entry give the natural chain unless they say otherwise; changes in a name come on top.
UniProt Q09028, whole entry, looked up: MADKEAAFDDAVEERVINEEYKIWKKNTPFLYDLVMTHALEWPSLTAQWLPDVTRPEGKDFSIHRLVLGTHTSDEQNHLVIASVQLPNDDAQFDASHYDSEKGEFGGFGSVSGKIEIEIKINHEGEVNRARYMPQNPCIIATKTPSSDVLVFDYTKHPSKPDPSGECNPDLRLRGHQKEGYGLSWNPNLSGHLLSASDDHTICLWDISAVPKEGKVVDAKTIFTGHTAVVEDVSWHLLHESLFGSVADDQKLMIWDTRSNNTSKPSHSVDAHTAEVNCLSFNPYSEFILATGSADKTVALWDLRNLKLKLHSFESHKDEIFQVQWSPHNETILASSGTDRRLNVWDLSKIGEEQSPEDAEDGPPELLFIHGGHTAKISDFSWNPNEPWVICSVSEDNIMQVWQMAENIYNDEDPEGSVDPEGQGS
UniProt P22670: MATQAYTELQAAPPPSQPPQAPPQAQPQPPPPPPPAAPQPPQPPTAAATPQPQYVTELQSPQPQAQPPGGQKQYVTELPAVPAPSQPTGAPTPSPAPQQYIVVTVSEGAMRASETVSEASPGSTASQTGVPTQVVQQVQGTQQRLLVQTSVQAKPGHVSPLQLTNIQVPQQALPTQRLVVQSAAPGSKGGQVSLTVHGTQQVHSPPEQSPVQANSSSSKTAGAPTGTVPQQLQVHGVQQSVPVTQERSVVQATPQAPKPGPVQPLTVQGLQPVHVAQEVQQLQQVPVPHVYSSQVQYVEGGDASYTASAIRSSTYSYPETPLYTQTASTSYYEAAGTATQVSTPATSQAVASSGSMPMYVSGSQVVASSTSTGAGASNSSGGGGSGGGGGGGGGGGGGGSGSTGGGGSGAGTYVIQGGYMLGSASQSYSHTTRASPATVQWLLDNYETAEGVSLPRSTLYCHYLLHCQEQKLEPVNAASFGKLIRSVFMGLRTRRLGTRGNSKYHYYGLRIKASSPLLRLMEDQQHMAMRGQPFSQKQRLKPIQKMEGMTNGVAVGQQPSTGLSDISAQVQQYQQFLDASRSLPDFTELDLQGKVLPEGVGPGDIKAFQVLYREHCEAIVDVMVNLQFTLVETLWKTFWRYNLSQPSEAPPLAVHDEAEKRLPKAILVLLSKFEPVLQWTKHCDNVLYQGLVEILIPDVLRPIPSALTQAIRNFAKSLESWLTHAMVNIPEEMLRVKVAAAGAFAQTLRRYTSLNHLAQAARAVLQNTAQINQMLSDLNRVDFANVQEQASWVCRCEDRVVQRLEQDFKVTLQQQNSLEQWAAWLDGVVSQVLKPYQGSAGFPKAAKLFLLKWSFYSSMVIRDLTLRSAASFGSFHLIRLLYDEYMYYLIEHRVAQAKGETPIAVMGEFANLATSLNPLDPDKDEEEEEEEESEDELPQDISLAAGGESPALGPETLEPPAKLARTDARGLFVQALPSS
UniProt Q6JBY9, whole entry, looked up: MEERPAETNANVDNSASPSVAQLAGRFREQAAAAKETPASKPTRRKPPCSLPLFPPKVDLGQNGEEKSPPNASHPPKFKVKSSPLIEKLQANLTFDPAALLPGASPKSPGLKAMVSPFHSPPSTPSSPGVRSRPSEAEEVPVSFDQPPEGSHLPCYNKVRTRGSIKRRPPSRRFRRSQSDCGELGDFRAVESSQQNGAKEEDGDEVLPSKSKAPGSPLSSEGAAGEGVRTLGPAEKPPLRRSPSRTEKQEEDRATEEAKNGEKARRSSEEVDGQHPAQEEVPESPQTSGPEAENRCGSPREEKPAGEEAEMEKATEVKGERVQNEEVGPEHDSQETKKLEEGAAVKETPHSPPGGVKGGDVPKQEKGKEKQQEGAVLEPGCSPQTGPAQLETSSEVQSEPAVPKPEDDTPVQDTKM
UniProt Q14498: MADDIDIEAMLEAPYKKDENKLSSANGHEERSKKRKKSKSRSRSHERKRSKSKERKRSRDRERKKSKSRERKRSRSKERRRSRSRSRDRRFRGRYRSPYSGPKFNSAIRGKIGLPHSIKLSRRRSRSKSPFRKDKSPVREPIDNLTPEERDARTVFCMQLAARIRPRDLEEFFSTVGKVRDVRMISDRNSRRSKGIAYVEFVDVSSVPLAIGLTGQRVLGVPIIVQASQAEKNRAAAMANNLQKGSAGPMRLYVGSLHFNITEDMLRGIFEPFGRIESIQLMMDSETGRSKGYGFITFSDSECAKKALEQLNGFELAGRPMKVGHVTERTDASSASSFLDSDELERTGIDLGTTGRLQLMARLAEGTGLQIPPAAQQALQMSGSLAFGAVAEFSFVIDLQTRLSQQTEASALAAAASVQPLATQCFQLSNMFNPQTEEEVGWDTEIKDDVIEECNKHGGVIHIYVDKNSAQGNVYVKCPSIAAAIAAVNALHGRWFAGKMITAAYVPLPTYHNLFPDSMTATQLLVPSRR
UniProt P51606: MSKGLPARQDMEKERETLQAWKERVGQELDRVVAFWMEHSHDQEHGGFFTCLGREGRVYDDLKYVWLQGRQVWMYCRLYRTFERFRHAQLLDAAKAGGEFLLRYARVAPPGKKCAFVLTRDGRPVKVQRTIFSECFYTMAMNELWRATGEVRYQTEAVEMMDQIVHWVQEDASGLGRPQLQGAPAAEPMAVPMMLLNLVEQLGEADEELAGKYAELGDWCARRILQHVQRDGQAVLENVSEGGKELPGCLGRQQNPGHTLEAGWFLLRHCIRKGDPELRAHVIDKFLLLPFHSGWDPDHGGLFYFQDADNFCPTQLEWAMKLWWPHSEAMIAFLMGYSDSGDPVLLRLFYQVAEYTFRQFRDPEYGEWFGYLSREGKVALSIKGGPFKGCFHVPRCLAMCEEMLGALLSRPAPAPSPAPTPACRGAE
UniProt Q14644: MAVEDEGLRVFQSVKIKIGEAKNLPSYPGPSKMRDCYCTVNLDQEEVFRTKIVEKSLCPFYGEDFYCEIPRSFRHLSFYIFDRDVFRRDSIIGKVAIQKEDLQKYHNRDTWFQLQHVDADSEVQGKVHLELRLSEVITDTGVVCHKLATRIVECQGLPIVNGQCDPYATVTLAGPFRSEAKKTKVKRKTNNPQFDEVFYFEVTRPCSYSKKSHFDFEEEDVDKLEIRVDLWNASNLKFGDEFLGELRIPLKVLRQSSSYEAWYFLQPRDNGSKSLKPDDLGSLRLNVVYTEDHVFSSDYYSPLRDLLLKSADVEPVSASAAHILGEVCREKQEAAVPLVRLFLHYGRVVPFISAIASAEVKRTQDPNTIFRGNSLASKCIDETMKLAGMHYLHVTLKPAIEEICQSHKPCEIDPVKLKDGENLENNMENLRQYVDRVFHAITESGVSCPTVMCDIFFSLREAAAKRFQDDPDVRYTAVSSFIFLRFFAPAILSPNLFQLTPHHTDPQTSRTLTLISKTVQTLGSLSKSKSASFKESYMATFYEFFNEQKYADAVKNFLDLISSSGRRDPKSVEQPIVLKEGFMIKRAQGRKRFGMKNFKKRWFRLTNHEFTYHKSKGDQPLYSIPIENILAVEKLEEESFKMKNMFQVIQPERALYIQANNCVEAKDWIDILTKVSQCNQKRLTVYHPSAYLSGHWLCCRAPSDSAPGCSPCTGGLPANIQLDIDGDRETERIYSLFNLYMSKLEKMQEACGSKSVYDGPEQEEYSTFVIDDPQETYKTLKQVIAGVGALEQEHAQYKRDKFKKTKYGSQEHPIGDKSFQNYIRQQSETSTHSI
UniProt Q96D71: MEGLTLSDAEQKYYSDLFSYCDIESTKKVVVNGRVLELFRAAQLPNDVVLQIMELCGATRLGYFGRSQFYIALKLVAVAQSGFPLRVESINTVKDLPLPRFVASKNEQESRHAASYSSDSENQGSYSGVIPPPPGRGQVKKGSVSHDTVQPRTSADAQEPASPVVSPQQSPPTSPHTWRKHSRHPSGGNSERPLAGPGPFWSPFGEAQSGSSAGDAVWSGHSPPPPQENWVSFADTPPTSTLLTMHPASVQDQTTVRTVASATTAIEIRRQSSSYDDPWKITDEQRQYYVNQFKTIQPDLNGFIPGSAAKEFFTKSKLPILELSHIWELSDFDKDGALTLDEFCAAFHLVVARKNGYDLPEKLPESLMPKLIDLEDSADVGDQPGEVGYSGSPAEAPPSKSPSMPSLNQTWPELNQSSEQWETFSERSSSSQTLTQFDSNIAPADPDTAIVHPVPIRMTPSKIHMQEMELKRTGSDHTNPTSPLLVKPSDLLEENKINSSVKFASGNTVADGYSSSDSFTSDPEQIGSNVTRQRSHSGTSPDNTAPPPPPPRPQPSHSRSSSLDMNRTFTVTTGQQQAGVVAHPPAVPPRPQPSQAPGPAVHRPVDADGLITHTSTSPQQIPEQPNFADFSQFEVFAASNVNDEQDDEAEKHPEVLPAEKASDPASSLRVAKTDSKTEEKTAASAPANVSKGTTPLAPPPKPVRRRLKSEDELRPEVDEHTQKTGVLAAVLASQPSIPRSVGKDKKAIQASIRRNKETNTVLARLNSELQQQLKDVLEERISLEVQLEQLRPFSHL
UniProt Q8TAC1: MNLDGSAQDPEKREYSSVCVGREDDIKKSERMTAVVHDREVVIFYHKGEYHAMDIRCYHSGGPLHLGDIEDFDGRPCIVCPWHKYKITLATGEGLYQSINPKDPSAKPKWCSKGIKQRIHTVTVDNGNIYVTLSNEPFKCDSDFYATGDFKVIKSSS
UniProt Q96HR9: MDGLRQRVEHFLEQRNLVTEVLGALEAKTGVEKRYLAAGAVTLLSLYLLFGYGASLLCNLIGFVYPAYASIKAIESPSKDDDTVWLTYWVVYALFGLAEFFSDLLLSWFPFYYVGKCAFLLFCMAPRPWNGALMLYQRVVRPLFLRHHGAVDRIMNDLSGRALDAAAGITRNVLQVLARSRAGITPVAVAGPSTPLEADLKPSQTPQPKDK
UniProt Q96I51, whole entry, looked up: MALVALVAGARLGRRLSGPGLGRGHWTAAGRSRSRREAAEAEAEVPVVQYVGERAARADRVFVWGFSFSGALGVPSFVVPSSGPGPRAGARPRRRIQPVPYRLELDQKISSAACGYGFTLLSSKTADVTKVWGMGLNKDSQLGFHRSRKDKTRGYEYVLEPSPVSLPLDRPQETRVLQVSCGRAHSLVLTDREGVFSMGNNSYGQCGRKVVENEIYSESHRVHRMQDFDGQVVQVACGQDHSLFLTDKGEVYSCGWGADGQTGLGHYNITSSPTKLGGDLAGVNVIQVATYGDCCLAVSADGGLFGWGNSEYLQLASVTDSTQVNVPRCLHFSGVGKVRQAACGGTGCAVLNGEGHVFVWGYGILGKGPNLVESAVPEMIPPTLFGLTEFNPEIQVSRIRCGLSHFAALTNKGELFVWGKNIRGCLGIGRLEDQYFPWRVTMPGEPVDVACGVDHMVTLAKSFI
UniProt Q8IZV5: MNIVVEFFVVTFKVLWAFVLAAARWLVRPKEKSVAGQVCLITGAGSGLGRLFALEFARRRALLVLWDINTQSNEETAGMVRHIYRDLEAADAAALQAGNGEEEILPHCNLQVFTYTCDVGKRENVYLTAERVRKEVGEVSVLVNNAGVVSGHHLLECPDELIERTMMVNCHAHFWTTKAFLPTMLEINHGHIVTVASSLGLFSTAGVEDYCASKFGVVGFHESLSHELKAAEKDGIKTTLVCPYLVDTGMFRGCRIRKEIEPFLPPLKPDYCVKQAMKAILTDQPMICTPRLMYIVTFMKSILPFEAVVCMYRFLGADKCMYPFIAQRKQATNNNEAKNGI
UniProt P53805: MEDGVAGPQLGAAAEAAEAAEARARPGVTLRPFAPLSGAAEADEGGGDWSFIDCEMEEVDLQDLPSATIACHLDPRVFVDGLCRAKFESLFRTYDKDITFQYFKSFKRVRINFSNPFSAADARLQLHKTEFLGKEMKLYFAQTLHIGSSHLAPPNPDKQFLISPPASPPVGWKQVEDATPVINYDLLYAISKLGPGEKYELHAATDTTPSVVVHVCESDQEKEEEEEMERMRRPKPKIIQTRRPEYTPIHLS
UniProt Q5T160: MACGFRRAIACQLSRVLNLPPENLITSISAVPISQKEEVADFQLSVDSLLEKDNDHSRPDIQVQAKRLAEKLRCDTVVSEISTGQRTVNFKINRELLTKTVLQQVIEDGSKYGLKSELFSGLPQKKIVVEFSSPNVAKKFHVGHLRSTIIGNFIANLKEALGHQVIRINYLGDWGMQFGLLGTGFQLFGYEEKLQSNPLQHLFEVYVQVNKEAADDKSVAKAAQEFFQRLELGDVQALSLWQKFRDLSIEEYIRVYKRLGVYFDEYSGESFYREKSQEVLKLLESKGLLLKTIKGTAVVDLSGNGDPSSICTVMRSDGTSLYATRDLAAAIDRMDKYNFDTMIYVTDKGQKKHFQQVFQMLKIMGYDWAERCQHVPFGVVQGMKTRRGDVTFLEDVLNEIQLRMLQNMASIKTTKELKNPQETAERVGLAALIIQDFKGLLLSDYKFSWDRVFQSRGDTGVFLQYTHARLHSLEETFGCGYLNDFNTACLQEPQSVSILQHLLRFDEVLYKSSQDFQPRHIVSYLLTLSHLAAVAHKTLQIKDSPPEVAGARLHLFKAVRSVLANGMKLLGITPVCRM
UniProt O43665: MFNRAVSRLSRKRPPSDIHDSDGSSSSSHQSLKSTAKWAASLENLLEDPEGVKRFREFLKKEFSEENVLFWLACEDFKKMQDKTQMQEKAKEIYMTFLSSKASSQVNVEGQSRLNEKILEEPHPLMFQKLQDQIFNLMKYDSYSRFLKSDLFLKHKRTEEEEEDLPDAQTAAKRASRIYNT

compound: CNC(=O)C1=CC=CC=C1NC2=NC(=NC=C2Cl)NC3=C(C=C(C=C3)N4CCOCC4)OC; assay: log2 fold change, soluble protein after heating vs DMSO (PISA); higher = thermal stabilisation; K562 lysate, 10 uM; active = over 0.2 and 3.5 SD of the protein, either way, in both replicates (recomputed)
Procedure, shortened: (§1)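 Log-two fold change in thermal stability relative to solvent controls is reported from duplicates. For each sample, crude K562 extract from dounce-homogenised pellets in PBS pH 7.4 with 1 mM MgCl2, at 1 mg/mL protein, was treated with 10 μM compound for 30 min. Aliquots heated for 3 min across 48°C-58°C were pooled, brought to 0.5% NP-40 at 4°C and cleared at 21,000xg for 90 min. The supernatant was quantified by TMTpro 16plex LC-MS/MS with channel sums equalised.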

Target | log2 fold change
RBL1 (UniProt P28749) | inactive: -0.01
RBBP4 (UniProt Q09028) | inactive: 0.013
RCOR1 (UniProt Q9UKL0) | inactive: -0.017
RBM33 (UniProt Q96EV2) | inactive: -0.015
RFX1 (UniProt P22670) | inactive: 0.011
RBM28 (UniProt Q9NW13) | inactive: 0.006
RAVER1 (UniProt E9PAU2) | inactive: 0.074
RCSD1 (UniProt Q6JBY9) | inactive: -0.023
RBM39 (UniProt Q14498) | inactive: -0.055
RFT1 (UniProt Q96AA3) | inactive: 0.013
RENBP (UniProt P51606) | inactive: 0
RECQL5 (UniProt O94762) | inactive: -0.071
RELN (UniProt P78509) | inactive: -0.025
RFXAP (UniProt O00287) | inactive: -0.012
RASA3 (UniProt Q14644) | inactive: 0
REPS1 (UniProt Q96D71) | inactive: 0.002

Target | log2 fold change
RBM3 (UniProt P98179) | inactive: 0.118
RCN3 (UniProt Q96D15) | inactive: 0.005
RASA2 (UniProt Q15283) | inactive: 0.019
RFESD isoform 2 (UniProt Q8TAC1) | inactive: -0.037
RBM42 (UniProt Q9BTD8) | inactive: 0.08
RASA1 (UniProt P20936) | inactive: 0.053
RBMX (UniProt P38159) | inactive: -0.042
RCOR3 isoform 3 (UniProt Q9P2K3) | inactive: -0.002
REEP6 (UniProt Q96HR9) | inactive: 0.02
RCC1L (UniProt Q96I51) | inactive: 0.009
RDH10 (UniProt Q8IZV5) | inactive: 0.069
RERE (UniProt Q9P2R6) | inactive: 0.02
RCAN1 (UniProt P53805) | inactive: 0.052
RARS2 (UniProt Q5T160) | inactive: 0.025
RGS10 (UniProt O43665) | inactive: 0.026
RFX5 (UniProt P48382) | inactive: 0

compound: CNC(=O)c1ccc(Nc2ncc(C(F)(F)F)c(NCc3nccnc3N(C)S(C)(=O)=O)n2)cc1 [defactinib]; assay: as above
Procedure, shortened: as §1

Target | log2 fold change
RBL1 (UniProt P28749) | inactive: -0.074
RBBP4 (UniProt Q09028) | inactive: -0.05
RCOR1 (UniProt Q9UKL0) | inactive: -0.039
RBM33 (UniProt Q96EV2) | inactive: 0.004
RFX1 (UniProt P22670) | inactive: -0.008
RBM28 (UniProt Q9NW13) | inactive: -0.018
RAVER1 (UniProt E9PAU2) | inactive: 0.024
RCSD1 (UniProt Q6JBY9) | inactive: 0.01
RBM39 (UniProt Q14498) | inactive: -0.095
RFT1 (UniProt Q96AA3) | inactive: -0.057
RENBP (UniProt P51606) | inactive: -0.007
RECQL5 (UniProt O94762) | inactive: 0.068
RELN (UniProt P78509) | inactive: 0.055
RFXAP (UniProt O00287) | inactive: -0.08
RASA3 (UniProt Q14644) | inactive: 0.052
REPS1 (UniProt Q96D71) | inactive: 0.045

Target | log2 fold change
RBM3 (UniProt P98179) | inactive: 0.038
RCN3 (UniProt Q96D15) | inactive: 0.026
RASA2 (UniProt Q15283) | inactive: 0.053
RFESD isoform 2 (UniProt Q8TAC1) | inactive: -0.065
RBM42 (UniProt Q9BTD8) | inactive: 0.058
RASA1 (UniProt P20936) | inactive: 0.005
RBMX (UniProt P38159) | inactive: 0.023
RCOR3 isoform 3 (UniProt Q9P2K3) | inactive: 0.009
REEP6 (UniProt Q96HR9) | inactive: 0.056
RCC1L (UniProt Q96I51) | inactive: 0.037
RDH10 (UniProt Q8IZV5) | inactive: 0.009
RERE (UniProt Q9P2R6) | inactive: 0.068
RCAN1 (UniProt P53805) | inactive: 0.006
RARS2 (UniProt Q5T160) | inactive: 0.041
RGS10 (UniProt O43665) | inactive: 0.033
RFX5 (UniProt P48382) | inactive: -0.042

compound: CNc1nc(-c2ccc3c(N)n[nH]c3c2)cc(N2C[C@@H](C(=O)NC3CCCCC3)CC[C@H]2C)n1; assay: as above
Procedure, shortened: as §1

Target | log2 fold change
RBL1 (UniProt P28749) | inactive: 0.096
RBBP4 (UniProt Q09028) | inactive: 0.05
RCOR1 (UniProt Q9UKL0) | inactive: 0.014
RBM33 (UniProt Q96EV2) | inactive: -0.042
RFX1 (UniProt P22670) | inactive: -0.005
RBM28 (UniProt Q9NW13) | inactive: 0.022
RAVER1 (UniProt E9PAU2) | inactive: 0.044
RCSD1 (UniProt Q6JBY9) | inactive: 0.063
RBM39 (UniProt Q14498) | inactive: 0.081
RFT1 (UniProt Q96AA3) | inactive: 0.015
RENBP (UniProt P51606) | inactive: -0.004
RECQL5 (UniProt O94762) | inactive: 0.074
RELN (UniProt P78509) | inactive: -0.016
RFXAP (UniProt O00287) | inactive: -0.01
RASA3 (UniProt Q14644) | inactive: -0.118
REPS1 (UniProt Q96D71) | inactive: -0.013

Target | log2 fold change
RBM3 (UniProt P98179) | inactive: 0.035
RCN3 (UniProt Q96D15) | inactive: 0.063
RASA2 (UniProt Q15283) | inactive: -0.064
RFESD isoform 2 (UniProt Q8TAC1) | inactive: 0
RBM42 (UniProt Q9BTD8) | inactive: 0.077
RASA1 (UniProt P20936) | inactive: -0.046
RBMX (UniProt P38159) | inactive: -0.022
RCOR3 isoform 3 (UniProt Q9P2K3) | inactive: -0.014
REEP6 (UniProt Q96HR9) | inactive: -0.013
RCC1L (UniProt Q96I51) | inactive: 0.002
RDH10 (UniProt Q8IZV5) | inactive: -0.013
RERE (UniProt Q9P2R6) | inactive: -0.048
RCAN1 (UniProt P53805) | inactive: 0.079
RARS2 (UniProt Q5T160) | inactive: -0.02
RGS10 (UniProt O43665) | inactive: 0.022
RFX5 (UniProt P48382) | inactive: 0.029
